Counter-ions that a name gives are not always drawn. This is one part of the list. Hit calls seldom repeat between salt and free forms of one compound.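 Kinases, fused to nanoluciferase, were expressed in K562 cells; luminescence was measured every 4 h from 2 to 18 h as percent of control (DMSO = 100%, positive control = 0%). A time point is decreased if signal falls significantly (2 sigma). Hits were called by the authors by a rule that is not shown; the count of time points alone does not decide it.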
These molecules were tested against ERBB3 (UniProt P21860) (assay: kinase-Nluc reporter destabilization hit call (1 = scored as downregulated) (binary); higher = compound decreases kinase abundance). Conditions: 10 µM; K562; 2-18 h.

The chains behind the UniProt entries cited, without tags or fusion partners.
UniProt P21860, whole entry: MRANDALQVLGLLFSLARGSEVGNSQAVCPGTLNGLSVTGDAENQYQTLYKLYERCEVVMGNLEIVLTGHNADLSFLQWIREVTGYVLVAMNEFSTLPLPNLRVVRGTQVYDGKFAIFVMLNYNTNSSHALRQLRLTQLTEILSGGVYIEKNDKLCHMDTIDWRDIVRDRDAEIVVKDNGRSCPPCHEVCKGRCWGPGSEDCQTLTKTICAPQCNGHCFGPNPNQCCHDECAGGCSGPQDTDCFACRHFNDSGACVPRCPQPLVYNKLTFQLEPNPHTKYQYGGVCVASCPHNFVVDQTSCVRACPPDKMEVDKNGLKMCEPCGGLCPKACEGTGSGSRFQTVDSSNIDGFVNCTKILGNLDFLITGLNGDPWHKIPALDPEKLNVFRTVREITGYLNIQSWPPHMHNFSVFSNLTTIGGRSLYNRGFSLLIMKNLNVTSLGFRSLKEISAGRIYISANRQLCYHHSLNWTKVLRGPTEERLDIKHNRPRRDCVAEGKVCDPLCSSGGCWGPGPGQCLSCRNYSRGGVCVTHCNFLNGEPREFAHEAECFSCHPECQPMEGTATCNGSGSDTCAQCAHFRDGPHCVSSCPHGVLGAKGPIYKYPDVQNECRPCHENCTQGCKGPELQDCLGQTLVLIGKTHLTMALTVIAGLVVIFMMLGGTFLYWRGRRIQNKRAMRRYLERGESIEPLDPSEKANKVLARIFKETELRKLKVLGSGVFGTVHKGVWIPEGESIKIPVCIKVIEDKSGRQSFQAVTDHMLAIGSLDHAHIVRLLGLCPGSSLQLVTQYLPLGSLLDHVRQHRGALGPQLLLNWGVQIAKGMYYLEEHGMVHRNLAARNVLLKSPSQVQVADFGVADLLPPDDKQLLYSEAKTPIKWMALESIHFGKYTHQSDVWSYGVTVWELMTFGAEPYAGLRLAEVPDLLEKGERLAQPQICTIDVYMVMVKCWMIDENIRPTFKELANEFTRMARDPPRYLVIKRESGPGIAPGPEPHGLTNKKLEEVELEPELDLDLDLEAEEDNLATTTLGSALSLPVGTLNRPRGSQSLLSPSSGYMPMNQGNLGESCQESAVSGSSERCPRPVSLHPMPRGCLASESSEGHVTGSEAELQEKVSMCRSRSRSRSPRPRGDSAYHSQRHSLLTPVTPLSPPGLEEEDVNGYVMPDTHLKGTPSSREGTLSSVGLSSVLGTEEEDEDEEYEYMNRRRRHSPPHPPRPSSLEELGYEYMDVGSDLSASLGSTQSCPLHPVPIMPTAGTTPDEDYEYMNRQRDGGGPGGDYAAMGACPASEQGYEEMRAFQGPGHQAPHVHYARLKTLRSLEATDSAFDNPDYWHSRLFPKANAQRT

kinase-Nluc reporter destabilization hit call, inactive:
COc1cc2c(-c3cnn4cc(N5CCC(N6CCN(C)CC6)CC5)cnc34)ccnc2cc1F [ALK2-IN-4 (succinate)] 0
C#Cc1cccc(Nc2ncnc3cc(OCCOC)c(OCCO)cc23)c1 [Desmethyl Erlotinib] 0
N=C(N)NC(=O)c1nc(Cl)c(N)nc1N [Amiloride (hydrochloride)] 0
N#CC[C@H](C1CCCC1)n1cc(-c2ncnc3[nH]ccc23)cn1 [Ruxolitinib (phosphate)] 0
CC(=O)c1c(C)c2cnc(Nc3ccc(N4CCNCC4)cn3)nc2n(C2CCCC2)c1=O [Palbociclib (monohydrochloride)] 0
O=C(O)c1ccc2c(c1)nc(Nc1cccc(Cl)c1)c1ccncc12 [Silmitasertib (sodium salt)] 0
COc1ccnc(C[S+]([O-])c2nc3cc(-n4cccc4)ccc3[nH]2)c1C (stereo unspecified) [Ilaprazole (sodium)] 0
CC(C)NC[C@@H](C(=O)N1CCN(c2ncnc3c2[C@H](C)C[C@H]3O)CC1)c1ccc(Cl)cc1 [Ipatasertib (dihydrochloride)] 0
CC(=O)c1c(C)c2cnc(Nc3ccc(N4CCNCC4)cn3)nc2n(C2CCCC2)c1=O [Palbociclib (isethionate)] 0
O=C(c1ccc(F)c(F)c1Nc1ccc(I)cc1F)N1CC(O)([C@@H]2CCCCN2)C1 [Cobimetinib (hemifumarate)] 0
COC(=O)[C@H](CC(C)C)NC(=O)c1ccc(NC[C@@H](N)CS)cc1-c1cccc2ccccc12 0

For reference, some entries already given:
kinase-Nluc reporter destabilization hit call, inactive:
CC(=O)c1c(C)c2cnc(Nc3ccc(N4CCNCC4)cn3)nc2n(C2CCCC2)c1=O [Palbociclib (isethionate)] 0
O=C(c1ccc(F)c(F)c1Nc1ccc(I)cc1F)N1CC(O)([C@@H]2CCCCN2)C1 [Cobimetinib (hemifumarate)] 0

Reference: the supplement of paper PMC12823440, “Inhibitors supercharge kinase turnover through native proteolytic circuits” (Nature, 2025)
